Reference: article PMC9723622
No constants are given. Whether binding was seen depends on the method and setting. Binding seen in cells or lysates may run through a third protein. A yes stands for co-enrichment or nearness to the bait. Other partners may have been found.

Sequences of proteins named here, by UniProt entry; tags and fusion partners are left off.
UniProt P09874: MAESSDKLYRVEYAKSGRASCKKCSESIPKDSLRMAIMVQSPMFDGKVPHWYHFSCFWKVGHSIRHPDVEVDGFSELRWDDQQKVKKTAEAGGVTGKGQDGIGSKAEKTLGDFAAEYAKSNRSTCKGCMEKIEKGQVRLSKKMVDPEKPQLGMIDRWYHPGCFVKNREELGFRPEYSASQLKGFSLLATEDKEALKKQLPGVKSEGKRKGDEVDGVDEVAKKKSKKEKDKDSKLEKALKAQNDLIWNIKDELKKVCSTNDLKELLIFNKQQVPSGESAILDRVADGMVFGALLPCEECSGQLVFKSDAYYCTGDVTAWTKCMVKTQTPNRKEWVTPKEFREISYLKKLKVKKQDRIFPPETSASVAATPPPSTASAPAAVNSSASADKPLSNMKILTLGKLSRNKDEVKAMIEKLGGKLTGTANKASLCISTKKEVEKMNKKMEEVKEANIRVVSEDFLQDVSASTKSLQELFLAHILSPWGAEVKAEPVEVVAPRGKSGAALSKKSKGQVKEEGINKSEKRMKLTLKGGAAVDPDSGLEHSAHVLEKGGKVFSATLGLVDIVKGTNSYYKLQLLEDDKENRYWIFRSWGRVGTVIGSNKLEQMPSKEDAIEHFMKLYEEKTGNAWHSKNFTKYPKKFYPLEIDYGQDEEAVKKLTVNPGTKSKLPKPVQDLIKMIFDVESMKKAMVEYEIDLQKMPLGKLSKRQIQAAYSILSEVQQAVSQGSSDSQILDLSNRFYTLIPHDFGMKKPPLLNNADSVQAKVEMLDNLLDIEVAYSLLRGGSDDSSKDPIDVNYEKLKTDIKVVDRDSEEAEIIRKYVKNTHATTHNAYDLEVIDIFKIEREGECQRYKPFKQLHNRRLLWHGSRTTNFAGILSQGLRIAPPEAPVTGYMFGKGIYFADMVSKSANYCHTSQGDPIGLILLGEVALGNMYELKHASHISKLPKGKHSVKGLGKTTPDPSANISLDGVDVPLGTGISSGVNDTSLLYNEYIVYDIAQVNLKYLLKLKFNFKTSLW
UniProt Q9ULW0: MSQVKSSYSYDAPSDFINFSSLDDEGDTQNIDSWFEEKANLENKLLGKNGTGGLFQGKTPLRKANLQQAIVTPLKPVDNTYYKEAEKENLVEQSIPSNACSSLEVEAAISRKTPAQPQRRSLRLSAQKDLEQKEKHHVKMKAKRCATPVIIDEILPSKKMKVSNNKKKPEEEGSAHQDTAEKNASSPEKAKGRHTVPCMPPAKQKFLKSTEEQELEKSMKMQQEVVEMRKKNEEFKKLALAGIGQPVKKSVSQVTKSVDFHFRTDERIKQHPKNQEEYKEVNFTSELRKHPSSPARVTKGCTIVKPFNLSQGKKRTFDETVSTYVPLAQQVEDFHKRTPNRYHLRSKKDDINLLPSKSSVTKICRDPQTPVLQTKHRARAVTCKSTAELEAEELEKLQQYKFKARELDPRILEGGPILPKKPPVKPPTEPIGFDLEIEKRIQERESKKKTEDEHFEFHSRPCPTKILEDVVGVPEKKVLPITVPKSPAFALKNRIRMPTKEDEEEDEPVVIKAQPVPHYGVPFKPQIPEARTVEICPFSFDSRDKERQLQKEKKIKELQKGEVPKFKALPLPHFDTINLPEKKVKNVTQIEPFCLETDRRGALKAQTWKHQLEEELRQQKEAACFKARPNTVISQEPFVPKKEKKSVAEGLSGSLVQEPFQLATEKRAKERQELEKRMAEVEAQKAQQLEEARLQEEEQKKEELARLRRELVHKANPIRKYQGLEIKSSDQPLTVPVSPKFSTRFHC

Experiments:
[1] = target: full-length PARP1 tagged on the N-terminus with APEX2 (expressed in HEK293T cells) (human) (UniProt P09874); experiment: proximity labelling; APEX2-PARP1 in HEK293T cells after olaparib or DMSO treatment; SILAC, NeutrAvidin pull-down, LC-MS/MS
[2] = target: GFP-tagged TPX2, full length (expressed in U2OS cells) (UniProt Q9ULW0); experiment: affinity purification with mass spectrometry; GFP-TPX2 transiently expressed in U2OS; GFP-Trap beads, modified RIPA washes, on-bead digestion, label-free quantification against a GFP control
[3] = target: GFP-tagged TPX2, full length (expressed in U2OS cells) (UniProt Q9ULW0); experiment: affinity purification with mass spectrometry; SILAC-based co-IP-MS of the N-terminal deletion mutant or full-length TPX2 in U2OS cells (Supplementary Figure S4d)
[4] = target: full-length PARP1 tagged on the N-terminus with APEX2 (expressed in U2OS cells) (human) (UniProt P09874); experiment: proximity labelling; APEX2-PARP1 in SILAC-labelled U2OS cells; 500 uM biotin phenol 2 h, 1 mM H2O2 2 min, against no H2O2; nuclear extract, NeutrAvidin pull-down, LC-MS/MS; FDR < 1%

binding [1]: binds
binding [2]: binds
binding [3]: binds
binding [4]: binds
B1: LIG3 (protein, UniProt P49916 43-1009)
chain: LLHGHPLFLRRKPVLSFQGSHLRSRATYLVFLPGLHVGLCSGPCEMAEQRFCVDYAKRGTAGCKKCKEKIVKGVCRIGKVVPNPFSESGGDMKEWYHIKCMFEKLERARATTKKIEDLTELEGWEELEDNEKEQITQHIADLSSKAAGTPKKKAVVQAKLTTTGQVTSPVKGASFVTSTNPRKFSGFSAKPNNSGEAPSSPTPKRSLSSSKCDPRHKDCLLREFRKLCAMVADNPSYNTKTQIIQDFLRKGSAGDGFHGDVYLTVKLLLPGVIKTVYNLNDKQIVKLFSRIFNCNPDDMARDLEQGDVSETIRVFFEQSKSFPPAAKSLLTIQEVDEFLLRLSKLTKEDEQQQALQDIASRCTANDLKCIIRLIKHDLKMNSGAKHVLDALDPNAYEAFKASRNLQDVVERVLHNAQEVEKEPGQRRALSVQASLMTPVQPMLAEACKSVEYAMKKCPNGMFSEIKYDGERVQVHKNGDHFSYFSRSLKPVLPHKVAHFKDYIPQAFPGGHSMILDSEVLLIDNKTGKPLPFGTLGVHKKAAFQDANVCLFVFDCIYFNDVSLMDRPLCERRKFLHDNMVEIPNRIMFSEMKRVTKALDLADMITRVIQEGLEGLVLKDVKGTYEPGKRHWLKVKKDYLNEGAMADTADLVVLGAFYGQGSKGGMMSIFLMGCYDPGSQKWCTVTKCAGGHDDATLARLQNELDMVKISKDPSKIPSWLKVNKIYYPDFIVPDPKKAAVWEITGAEFSKSEAHTADGISIRFPRCTRIRDDKDWKSATNLPQLKELYQLSKEKADFTVVAGDEGSSTTGGSSEENKGPSGSAVSRKAPSKPSASTKKAEGKLSNSNSKDGNMQTAKPSAMKVGEKLATKSSPVKVGEKRKAADETLCQTKVLLDIFTGVRLYLPPSTPDFSRLRRYFVAFDGDLVQEFDMTSATHVLGSRDKNPAAQQVSPEWIWACIRKRRLVAPC
